Library screen at single concentrations

Source: ChEMBL document CHEMBL3988442, “University of Dundee, Small-Polar-MMV Screening Library” (2021).

T. brucei: 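Whole-parasite assay of Trypanosoma brucei over 72 hours; the read-out is not stated. Concentration: 30 µM. The record gives no direction; compounds that gave an IC50 in retests scored well above the rest, so higher reads as stronger inhibition. Values scatter widely below zero; nearly all retest evidence comes from the higher of the two concentrations used. About 64,000 compounds were tested under these conditions; 1.5% (about 940) showed 50% or more at least once.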
Leishmania in macrophages: 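Cell assay of Leishmania donovani living inside macrophages; the read-out is not stated. Compounds at 30 µM. The record gives no direction; compounds that gave an IC50 in retests scored well above the rest, so higher reads as stronger inhibition. Size under these conditions: about 69,000 compounds, about 1,000 of them at 50% or above in at least one test.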

Values are the deposited “Percent Effect”, in %. The controls that fix the scale are not given in the record; negative values are as filed. Compounds were drawn at random from those tested, without regard to their results. Two or more numbers in one place are separate tests of the same structure; such repeats can differ widely. A dash means the value is not listed here; it may have been measured.

compound | T. brucei | Leishmania in macrophages
Cn1c(N2CCOCC2)nc2cc(C(=O)NCc3cccnc3)ccc21 | -3.89% | 11.58%
CCn1cc(N2Cc3nc(N4CCOCC4)ncc3C2=O)cn1 | 28.15% | -6.754%
COCc1cccc(CNC(=O)CN2CCCC2c2noc(C)n2)c1 (centres unmarked) | -1.946% | 8.204%
CN(C)C(=O)C1CCCN1C(=O)c1ccc(Cn2ccnc2)o1 (centres unmarked) | -33.32% | 6.335%
O=C(O)C(F)(F)F.[H][C@@]12CCN(CCc3ccccc3)C[C@]1([H])O[C@@H](C(=O)NC)C2 | -20.62% | 53.78%
Cc1nn(CCNS(=O)(=O)NCc2ccccc2)c(C)c1Cl | 12.03% | -59.38%
Cc1n[nH]c2c1C(c1cnn(C)c1)SCC(=O)N2 (centres unmarked) | 17.47% | 11.89%
O=C(CN1CCOC1=O)N1CCC2(CCc3ccccc32)CC1 | -24.02% | -5.898%
c1ccc(Cc2noc(CN3CCCCC3Cn3cncn3)n2)cc1 (centres unmarked) | -30.03% | 8.688%
Cc1ccc(-c2cc(CNC(=O)N3CCOC(C)C3)on2)cc1 (centres unmarked) | 18.29% | -0.1605%
O=C(NC1CCCN(c2ncccn2)C1)c1ccoc1 (centres unmarked) | 14.15% | 9.105%
O=C(O)C(F)(F)F.[H][C@]12CN(Cc3csc(C)n3)C(=O)[C@@]1([H])CN(c1ncc(CC)cn1)C2 | - | 8.821%
COc1ccc(CN2CCC(CO)(Cc3ccc(Cl)cc3)CC2)c(O)c1 | -63.01% | 15.39%
COCC(=O)Nc1cnc(N2CCCC2)nc1 | -29.03% | 21.34%
[H][C@]12CCNC[C@@]1([H])OCCN(C(=O)c1ccco1)C2 | -182.6% | 14.03%
Cc1ccc(C(=O)O)cc1-c1cccc2c1CCNC2 | -18.03% | 17.04%
Cn1cc(N2CC3(CCN(Cc4ccccc4)CC3)OCC2=O)cn1.O=C(O)C(F)(F)F | -23.01% | -3.199%
O=C(O)C(F)(F)F.[H][C@@]12CCCO[C@]1([H])[C@@H](Oc1cccnc1)CN2S(=O)(=O)N(C)C | -10.67% | -5.064%
CC(C)(CN1C[C@H](Nc2ncccn2)[C@@H](C2CC2)C1)N1CCOCC1 | -18.52% | 6.831%
N#Cc1cnc(NCCCN2C(=O)COc3ccccc32)c(Cl)c1 | -19.35% | -4.092%
Cc1ccccc1C(=O)NCC(O)c1ccc(F)c(F)c1 (centres unmarked) | -114.3% | 6.009%
CCN1CC[C@]2(CN(C(=O)C3CCOCC3)C[C@H]2c2ccccc2)C1=O | - | 2.312%
O=C(CN1CCN(CCO)CC1)NC(C1CC1)C1CC1 | -37.63% | 7.267%
CN1CC2(CCN(C(=O)Cc3ccccn3)CC2)OCC1=O.O=C(O)C(F)(F)F | -29.41% | 22.91%
CCc1ncc(C(=O)N2CCCC2Cn2cccn2)s1 (centres unmarked) | -3.484% | -11.89%
O=C(O)C(F)(F)F.O=C1COC2(CCN(Cc3ccoc3)CC2)CN1 | -33.82% | 11.32%
COc1ccc(C2(c3nc(-c4cnn(C)c4)no3)CCOCC2)cc1 | -212.7% | -7.704%
Cc1nsc(NC(=O)NC2CCCN(C)C2)n1 (centres unmarked) | -24.12% | -30.83%
CN(CC(F)(F)F)C(=O)C1CSCN1C(=O)OC(C)(C)C (centres unmarked) | -88.61% | 10.49%
N#Cc1cc(NS(=O)(=O)CC2CCCCO2)ccc1F (centres unmarked) | -7.673% | 31.14%
CCN(CC)C(CNCc1ccc(OC)c(F)c1)c1ccco1 (centres unmarked) | 47.05% | -15.15%
Cc1nc(CN2CCC3(CC2)NC(=O)CC3c2cccnc2)cs1 (centres unmarked) | -55.66% | 10.7%
Cn1cc(C2CCCN2C(=O)CCCc2nc3ccccc3[nH]2)cn1 (centres unmarked) | -29.41% | -19.18%
C/C=C(/C)C(=O)NS(=O)(=O)c1ccc(C(F)(F)F)cn1 | -9.725% | 17.93%
[H][C@@]12CCN(S(=O)(=O)c3ccccc3)C[C@]1(c1nnc(C)o1)CCO2 | -46.55% | 56.06%
Cc1noc(C)c1CN1CCCC2(CCN(CC3CCCC3)C2)C1.O=C(O)C(F)(F)F (centres unmarked) | -38.73% | 6.706%
CN(Cc1nnc(C2CC2)n1C)S(=O)(=O)c1ccc(F)c(C#N)c1 | -51.77% | 0.3093% and 28.7%
Cn1cccc1C(O)CNC(=O)c1ccc(F)c(F)c1 (centres unmarked) | -5.044% | 1.852%
Cc1cccc(CNCC2COC3(CCCCC3)O2)c1C (centres unmarked) | -30.8% | -3.63%
Cn1cnnc1C1CCCN(C(=O)c2n[nH]c3ccccc23)C1 (centres unmarked) | 2.916% | 6.414%
COC(=O)c1ccc(NC(=O)CCc2ccncc2)c(C)c1 | 3.018% | 22.31%
Cn1ccnc1CN1CCC2(CC(=O)N(c3ccc4c(c3)OCO4)C2)C1.O=C(O)C(F)(F)F (centres unmarked) | -20.72% | 35.56%
CN(C)C(=O)COCc1nnc2n1CCN(Cc1ccoc1)C2.O=C(O)C(F)(F)F | -37.79% | -3.485%
COc1ccccc1S(=O)(=O)N1CCC(Oc2cccnn2)CC1 | -20.45% | -3.759%
CCc1cc(NCc2cc(CC(C)C)on2)n2nccc2n1 | -20.74% | 19.7%
COCCN(Cc1ccc(F)cc1C#N)CC(F)(F)F | 2.712% | 1.495%
Cc1ccc(Cn2nc(C)c3c(C(=O)O)c(Cl)c(C4CC4)nc32)cc1 | 1.786% | 18.7%
CCC(C(=O)N(C)Cc1cc(-c2ccccc2)n[nH]1)n1cccn1 (centres unmarked) | 2.926% | 12.1%
CN1CCC2(COCc3cnc(N4CCOCC4)nc32)C1.O=C(O)C(F)(F)F (centres unmarked) | -14.97% | -2.648%
CC(NC(=O)CCc1cccs1)c1nnc2n1CCCCC2 (centres unmarked) | -4.402% | 0.3541%
CC(C)[C@@H]1CN(Cc2ccccc2C#N)C[C@H]1NC(=O)N(C)C | -4.21% | 7.095%
CC(SCCNS(=O)(=O)c1cnn(C)c1)c1cccs1 (centres unmarked) | -178.4% | -80.79%
Cc1ccc(C(CNCc2cccc3c2OCO3)N2CCOCC2)o1 (centres unmarked) | -17.37% | 6.163%
CSc1ccc(NC(=O)Cn2cc(N)cn2)cc1 | -112.5% | 12.79%
Cc1nonc1OCCNc1ncnc2sc3c(c12)CCNC3 | -159.5% | -17.42%
COCC(C)NC(=O)c1nnn(-c2ccc(Br)cc2)n1 (centres unmarked) | -55.3% | 8.545%
O=C(CCn1cc(Cl)cn1)N1CCC2(CC1)[C@H](O)C[C@@H]2OCCO | -47.3% | -2.846%
CCCn1nc2c(cc1=O)CN(Cc1nc(-c3ccoc3)no1)CC2 | -14.51% | -4.507%
CN1CCCC2(CCN(S(=O)(=O)c3c(Cl)nc4sccn34)C2)C1=O (centres unmarked) | -9.058% | 41%

For reference, 3 entries once more:

For CC(SCCNS(=O)(=O)c1cnn(C)c1)c1cccs1 (centres unmarked) the result was T. brucei: -178.4%; Leishmania in macrophages: -80.79%.
For Cc1cccc(CNCC2COC3(CCCCC3)O2)c1C (centres unmarked) the result was T. brucei: -30.8%; Leishmania in macrophages: -3.63%.
For CSc1ccc(NC(=O)Cn2cc(N)cn2)cc1 the result was T. brucei: -112.5%; Leishmania in macrophages: 12.79%.